Assay results taken from PubChem BioAssay AID2685 (National Center for Advancing Translational Sciences (NCATS), 2010).
The other results are listed elsewhere or left out. Further columns of the screen follow, without active or inactive calls. Compounds called inactive in the main read-out are mostly missing here. The note in brackets gives the kind of curve behind each potency; many fits are weak.

Experiment: qHTS Assay for Lipid Storage Modulators in Drosophila S3 Cells;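 as to cell number change: cells counted by Cell Tracker Red CMTPX staining in the red channel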
Details: BODIPY lipid droplet fluorescence, 18-24 h; for cell number change: measured here: cell count max response, cells fed with added oleic acid
Summary of the method: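 Drosophila S3 cells loaded with oleic acid (400 uM, as added) and compounds at several concentrations; lipid droplets imaged by 488-nm laser-scanning cytometry, 500–530 nm intensity and object ratio to cell channel. Percent activity normalized to 20 uM Triacsin C.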

[1] = measured here: lipid fluorescence (Fed channel) AC50, cells fed with added oleic acid
[2] = measured here: cell number channel AC50, cells fed with added oleic acid

## Cc1nnc(SCCn2c(N3CCN(C)CC3)nc3c2c(=O)n(C)c(=O)n3C)s1
  cell number change: -6.18%

## CC1CC(C)CN(C(=O)C2CCN(C(=O)Nc3ccccc3)CC2)C1 (configuration not stated)
  cell number change: -1.81%

## CCOC(=O)Nc1cccc(OCC(=O)Nc2ccccc2OC)c1
  cell number change: -9.09%
[1]
  AC50: 29.1 µM [rising, single point]

## CS(=O)(=O)c1ccc2nc(NC(=O)c3ccc(N4CCCC4=O)cc3)sc2c1
  cell number change: 0.396%
[1]
  AC50: 6.51 µM [rising, single point]

## Cc1ccccc1Cn1c(NC2CCCC2)nc2c1c(=O)[nH]c(=O)n2C
  cell number change: 5.25%
[1]
  AC50: 25.9 µM [rising, partial curve]

## O=C(NC(=S)Nc1cccc2ncccc12)c1ccccc1
  cell number change: 42.2%
[2]
  AC50: 23.1 µM [rising, single point]
[1]
  AC50: 25.9 µM [rising, single point]

## COc1ccc(N(CC(=O)Nc2ccc(OC)c(OC)c2)S(=O)(=O)c2ccccc2)cc1Cl
  cell number change: -54.9%
[2]
  AC50: 8.2 µM [falling, partial curve]
[1]
  AC50: 29.1 µM [falling, single point]

## O=C(NC1=NCCS1)c1cc(-c2ccc(F)cc2)nc2ccccc12
  cell number change: 7.07%
[1]
  AC50: 0.291 µM [rising, full curve, poor fit]

## Cc1nc2ccc(S(=O)(=O)NCC(=O)N3CCCCC3)cc2s1
  cell number change: -85.3%
[2]
  AC50: 32.6 µM [falling, single point]

## CCn1c(C)cc(/C=C2/SC(=S)N(CC(=O)O)C2=O)c1C
  cell number change: -2.6%
[1]
  AC50: 0.00411 µM [falling, full curve, poor fit]

## Cc1cc(OC2CCCCC2)nc(-c2ccccc2O)n1
  cell number change: -3.34%
[1]
  AC50: 2.31 µM [rising, single point]

## CC(=O)c1c(C(C)=O)c(C)n(-c2ccc(O)cc2)c1C
  cell number change: -22.8%
[2]
  AC50: 0.0731 µM [falling, full curve, poor fit]

## CNC(=O)Nc1cccc(NC(=O)NC)n1
  cell number change: -10.8%
[2]
  AC50: 0.58 µM [falling, partial curve, poor fit]

## Cc1cc(F)ccc1NC(=O)CCc1c(C)nn(-c2ccc(N3CCCCC3)nn2)c1C
  cell number change: -7.65%

## Cc1nn(CCC#N)c2[nH]c(=O)cc(C(F)(F)F)c12
  cell number change: 25.8%
[2]
  AC50: 0.231 µM [falling, full curve, poor fit]
[1]
  AC50: 2.91 µM [falling, partial curve]

## CC1(C)OC(=O)C(=CNc2ccccc2)C(=O)O1
  cell number change: 6.34%
[1]
  AC50: 5.17 µM [rising, single point]

## CCc1nnc(NC(=O)C(c2ccccc2)c2ccccc2)s1
  cell number change: 5.13%
[1]
  AC50: 0.00461 µM [rising, full curve, poor fit]

## CCn1cc(NC(=O)CCl)c(C)n1
  cell number change: 17.3%
[1]
  AC50: 0.92 µM [falling, full curve]

## CCCN1C2=NCCCN2c2ccccc21
  cell number change: -8.77%

## COc1cccc(C2Nc3cc(Cl)c(S(N)(=O)=O)cc3S(=O)(=O)N2)c1 (configuration not stated)
  cell number change: -17%
[1]
  AC50: 0.517 µM [falling, full curve]

## COc1ccc(N(CC(=O)NC2CCCC2)C(=O)Cn2nnc(-c3ccc(OC)c(OC)c3)n2)cc1
  cell number change: -3.01%

## COc1ccccc1-c1cn(S(=O)(=O)c2ccc(C)cc2)nc1N
  cell number change: -16.8%
[1]
  AC50: 29.1 µM [falling, single point]

## COC(=O)C(=C/C(C)=C/c1cccnc1)C(=O)OC
  cell number change: 9.94%

## O=C(c1ccccn1)c1ncc(C(F)(F)F)cc1Cl
  cell number change: -28%
[1]
  AC50: 3.26 µM [falling, partial curve, poor fit]

## CC(C)S(=O)(=O)c1csc(NC(=O)Nc2cccc([N+](=O)[O-])c2)c1Cl
  cell number change: -58.4%
[2]
  AC50: 20.6 µM [falling, single point]
[1]
  AC50: 18.4 µM [falling, single point]

## O=C1NC[C@@H](Cc2cccc3ccccc23)N(CCCCC2CCCCC2)C1=O
  cell number change: -69.9%
[2]
  AC50: 20.6 µM [falling, partial curve]
[1]
  AC50: 16.4 µM [falling, partial curve, poor fit]

## Cc1cc(C)c(NC(=O)COC(=O)Cc2cccs2)c(C)c1
  cell number change: -19.7%

## COc1ccc(C(=O)NCCS(=O)(=O)NC(C)c2ccccc2)cc1 (configuration not stated)
  cell number change: -14.3%
[1]
  AC50: 2.31 µM [falling, partial curve]

## Cc1cc(NC(=O)C2CC(c3ccc(F)cc3)=NO2)n(-c2ccccc2)n1 (configuration not stated)
  cell number change: 9.71%

## COc1cccc(S(=O)(=O)NCc2ccc(C(=O)Nc3cccc(Cl)c3)cc2)c1
  cell number change: 6.47%

## CC(=O)NCCC(=O)NCc1ccc(F)cc1
  cell number change: -103%
[2]
  AC50: 23.1 µM [falling, partial curve]
[1]
  AC50: 23.1 µM [falling, single point]

## COc1ccc(OC)c(-n2c(C)cc(/C=C3\C(=N)N4N=C(CC(=O)N5CCOCC5)SC4=NC3=O)c2C)c1
  cell number change: -11.3%
[2]
  AC50: 0.82 µM [rising, single point]

## O=C(CNc1cccc(S(=O)(=O)N2CCCCC2)c1)Nc1cccc(F)c1
  cell number change: 122%
[2]
  AC50: 29.1 µM [rising, single point]

## Nc1cc(OC(=O)c2cccs2)nn1S(=O)(=O)c1ccc(F)cc1
  cell number change: -7.66%
[1]
  AC50: 0.103 µM [falling, full curve, poor fit]

## Cc1nc2c(c(C)nn2-c2ccccc2)c(C)c1CCC(=O)Nc1ccc(CN2CCCC2)cc1
[2]
  AC50: 0.461 µM [rising, full curve, poor fit]
[1]
  AC50: 0.517 µM [rising, full curve]

## CSCCC(NC(=O)c1ccccc1Cl)C(=O)N1CCN(C(C)=O)CC1 (configuration not stated)
  cell number change: -17.3%
[1]
  AC50: 0.00461 µM [falling, full curve, poor fit]

## CCc1ccc2oc(=O)cc(CN3CCCCC3C)c2c1 (configuration not stated)
  cell number change: -40.4%
[2]
  AC50: 14.6 µM [falling, partial curve, poor fit]
[1]
  AC50: 23.1 µM [falling, single point]

## COc1ccc(NC(=S)NCCc2ccccc2)c(OC)c1
  cell number change: 40.2%
[1]
  AC50: 1.3 µM [rising, partial curve]

## Cc1ccc(OCCNC(=O)c2cccc(S(=O)(=O)NCc3ccccc3)c2)cc1
  cell number change: -52.1%
[2]
  AC50: 23.1 µM [falling, single point]
[1]
  AC50: 0.00461 µM [falling, full curve, poor fit]
